Source: PMC4496222
These are yes or no findings as the source states them, for the method shown. Binding seen in cells or lysates may run through a third protein. Some binding calls cover weakened binding; strength is not graded here. Where a sequence is shown, tags or fusion partners need not be part of it.

Amino acid sequences for entries named in this document (tags omitted). Residues count along the entry.
UniProt P63165, residues 1-97: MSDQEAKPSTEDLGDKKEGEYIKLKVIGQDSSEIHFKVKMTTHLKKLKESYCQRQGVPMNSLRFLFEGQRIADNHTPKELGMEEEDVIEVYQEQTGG

Molecular target: T1, Flag-Gab1 (wild type), transiently expressed in 293T cells (UniProt Q13480)
T1 sequence: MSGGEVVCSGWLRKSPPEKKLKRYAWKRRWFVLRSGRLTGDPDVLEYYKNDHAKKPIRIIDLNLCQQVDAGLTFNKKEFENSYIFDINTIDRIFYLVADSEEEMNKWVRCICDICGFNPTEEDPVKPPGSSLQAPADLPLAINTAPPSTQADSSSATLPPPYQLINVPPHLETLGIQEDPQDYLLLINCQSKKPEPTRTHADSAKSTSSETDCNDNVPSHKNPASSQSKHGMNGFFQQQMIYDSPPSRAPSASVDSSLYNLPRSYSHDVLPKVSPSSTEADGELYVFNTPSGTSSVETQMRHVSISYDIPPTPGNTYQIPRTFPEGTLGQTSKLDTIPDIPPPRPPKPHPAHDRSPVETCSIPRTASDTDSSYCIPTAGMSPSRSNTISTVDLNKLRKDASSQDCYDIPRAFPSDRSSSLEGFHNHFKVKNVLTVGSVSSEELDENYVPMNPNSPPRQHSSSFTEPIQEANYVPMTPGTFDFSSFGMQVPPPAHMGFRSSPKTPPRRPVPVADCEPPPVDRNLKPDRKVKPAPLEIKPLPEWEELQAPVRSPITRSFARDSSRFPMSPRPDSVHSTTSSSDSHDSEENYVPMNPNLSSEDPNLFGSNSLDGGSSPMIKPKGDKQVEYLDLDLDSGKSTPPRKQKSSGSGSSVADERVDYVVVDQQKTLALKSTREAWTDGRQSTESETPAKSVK
Assay: co-IP; 293T cells co-transfected with His-SUMO1 and Flag-Gab1 WT or SIM1/2mut; IP with anti-Flag, blot with anti-His

binding: binds
Substance: His-SUMO1, expressed in 293T cells (from UniProt P63165 1-97)
